# Record: PubChem BioAssay AID1159578 (Peter MacCallum Cancer Centre, 2015)
# Aim: 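siRNA pools altering how lymphatic endothelial cells close a scratch wound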 (primary screen)
# Cells: human lymphatic endothelial cells
# Reagents: siRNA pool against human genes, 40 nM
# Duration: 48 h after transfection
# Measurement: 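Cells stained with dye and imaged after a scratch; covered wound area and nuclei counted, duplicates averaged, migration set against mock wells and turned into a robust z-score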
# Direction: migration robust z-score: higher = faster migration into the scratch; migration relative to mock: higher = more scratch area covered than mock; nuclei per well: higher = more cells in the well
# Call rule: 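Pools averaging fewer than 3300 nuclei are never called; remaining pools count as changed when migration robust z lies outside -2 to 2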
# Calls: active = migration changed; inactive = no migration change, or too few cells
# The whole screen tested about 18,000 reagents; shown is an unselected part. About 1,030 of them (5.7%) were called active. 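Inactive calls also include pools with fewer than 3300 nuclei, whose migration was not assessed.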 Raw values are not corrected between plates. The numbers tell different reagents against one gene apart. Reagent sequences are not shown.
gene,reagent,migration robust z-score,migration class with cell-count check,migration relative to mock,"nuclei per well, duplicate mean",activity call
HS3ST4 (GeneID 9951),1,-0.05,migration z between -2 and 2; enough cells,0.8,4514,inactive
C5orf24 (GeneID 134553),1,1.73,migration z between -2 and 2; enough cells,1.33,6165,inactive
PABPC4 (GeneID 8761),1,-3.32,migration z below -2; enough cells,0.02,4164,active
TIGD1 (GeneID 200765),1,1.35,migration z between -2 and 2; enough cells,1.23,5153,inactive
CETP (GeneID 1071),1,1.6,migration z between -2 and 2; enough cells,1.12,7010,inactive
ARMCX2 (GeneID 9823),1,-0.97,migration z between -2 and 2; enough cells,0.64,7243,inactive
BCL6 (GeneID 604),1,-0.36,migration z between -2 and 2; enough cells,0.8,7520,inactive
SUPT6H (GeneID 6830),1,-0.32,migration z between -2 and 2; enough cells,0.74,6284,inactive
VPS13A (GeneID 23230),1,0.54,migration z between -2 and 2; enough cells,1.02,5646,inactive
DAND5 (GeneID 199699),1,-0.52,migration z between -2 and 2; enough cells,0.75,6410,inactive
IBA57 (GeneID 200205),1,-0.36,migration z between -2 and 2; enough cells,0.79,4880,inactive
TOX (GeneID 9760),1,-0.42,migration z between -2 and 2; enough cells,0.78,4679,inactive
ATG7 (GeneID 10533),1,-0.13,migration z between -2 and 2; enough cells,0.78,4793,inactive
PSEN1 (GeneID 5663),1,-0.94,migration z between -2 and 2; enough cells,0.62,5156,inactive
GYPB (GeneID 2994),1,-0.94,migration z between -2 and 2; enough cells,0.64,6564,inactive
TCIRG1 (GeneID 10312),1,-0.24,migration z between -2 and 2; enough cells,0.76,5880,inactive
CYP4F22 (GeneID 126410),1,0.38,migration z between -2 and 2; enough cells,0.98,6262,inactive
MAMLD1 (GeneID 10046),1,0.04,migration z between -2 and 2; enough cells,0.89,4800,inactive
MLXIP (GeneID 22877),1,0.39,migration z between -2 and 2; enough cells,0.99,5974,inactive
PPIL3 (GeneID 53938),1,-0.67,migration z between -2 and 2; enough cells,0.68,5787,inactive
DDX21 (GeneID 9188),1,1.02,migration z between -2 and 2; enough cells,1,4582,inactive
CCDC126 (GeneID 90693),1,-1.24,migration z between -2 and 2; enough cells,0.56,5430,inactive
TLCD4 (GeneID 148534),1,1.44,migration z between -2 and 2; enough cells,1.26,6944,inactive
H2AC11 (GeneID 8969),1,-1.44,migration z between -2 and 2; enough cells,0.51,5620,inactive
HACL2 (GeneID 10994),1,-0.47,migration z between -2 and 2; enough cells,0.72,3936,inactive
WNK1 (GeneID 65125),1,0.16,migration z between -2 and 2; enough cells,0.84,5836,inactive
WNK1 (GeneID 65125),2,-1.77,migration z between -2 and 2; enough cells,0.42,4158,inactive
MTX1 (GeneID 4580),1,0.2,migration z between -2 and 2; enough cells,0.94,5252,inactive
SNAP91 (GeneID 9892),1,1.07,migration z between -2 and 2; enough cells,1.17,6114,inactive
DSC3 (GeneID 1825),1,-3.8,under 3300 nuclei; migration not judged,-0.1,2970,inactive
ADIPOR1 (GeneID 51094),1,-0.68,migration z between -2 and 2; enough cells,0.71,5981,inactive
DOK1 (GeneID 1796),1,0.14,migration z between -2 and 2; enough cells,0.92,5010,inactive
NUP205 (GeneID 23165),1,0.58,migration z between -2 and 2; enough cells,1.04,5094,inactive
NOS1AP (GeneID 9722),1,0.08,migration z between -2 and 2; enough cells,0.9,4854,inactive
JARID2 (GeneID 3720),1,-0.18,migration z between -2 and 2; enough cells,0.77,6237,inactive
NGRN (GeneID 51335),1,0.54,migration z between -2 and 2; enough cells,1.02,5066,inactive
GLUD1 (GeneID 2746),1,2.02,migration z above 2; enough cells,1.19,6494,active
SLC4A11 (GeneID 83959),1,-0.92,migration z between -2 and 2; enough cells,0.64,5490,inactive
PPP1R7 (GeneID 5510),1,1.82,migration z between -2 and 2; enough cells,1.16,4814,inactive
OR7G2 (GeneID 390882),1,0.8,migration z between -2 and 2; enough cells,1.09,5430,inactive
CUEDC1 (GeneID 404093),1,-0.92,migration z between -2 and 2; enough cells,0.65,5858,inactive
AGAP2 (GeneID 116986),1,1.75,migration z between -2 and 2; enough cells,1.34,7556,inactive
IGSF21 (GeneID 84966),1,0.15,migration z between -2 and 2; enough cells,0.92,6346,inactive
ASB18 (GeneID 401036),1,-0.08,migration z between -2 and 2; enough cells,0.79,5128,inactive
IGFBP4 (GeneID 3487),1,-0.99,migration z between -2 and 2; enough cells,0.63,5837,inactive
AGBL4 (GeneID 84871),1,0.1,migration z between -2 and 2; enough cells,0.91,6190,inactive
EMILIN3 (GeneID 90187),1,-0.59,migration z between -2 and 2; enough cells,0.73,3474,inactive
SLC25A12 (GeneID 8604),1,-0.25,migration z between -2 and 2; enough cells,0.82,6434,inactive
DMBT1 (GeneID 1755),1,-0.06,migration z between -2 and 2; enough cells,0.8,5998,inactive
CRYGD (GeneID 1421),1,0.46,migration z between -2 and 2; enough cells,1,5602,inactive
NME7 (GeneID 29922),1,-1.4,migration z between -2 and 2; enough cells,0.53,4784,inactive
ARMCX6 (GeneID 54470),1,-0.22,migration z between -2 and 2; enough cells,0.83,4203,inactive
MBNL1 (GeneID 4154),1,0.62,migration z between -2 and 2; enough cells,1.04,5923,inactive
CUEDC2 (GeneID 79004),1,-2.8,migration z below -2; enough cells,0.16,4876,active
SLC35B2 (GeneID 347734),1,-1.08,migration z between -2 and 2; enough cells,0.6,5496,inactive
SAMD7 (GeneID 344658),1,-1.55,migration z between -2 and 2; enough cells,0.48,4280,inactive
IVL (GeneID 3713),1,0.08,migration z between -2 and 2; enough cells,0.9,5712,inactive
TRERF1 (GeneID 55809),1,-1.35,migration z between -2 and 2; enough cells,0.54,5394,inactive
RWDD2A (GeneID 112611),1,0.73,migration z between -2 and 2; enough cells,1.08,5616,inactive
GRHL1 (GeneID 29841),1,2.89,migration z above 2; enough cells,1.64,5730,active
TMCO5A (GeneID 145942),1,-0.02,migration z between -2 and 2; enough cells,0.88,6442,inactive
ARIH2 (GeneID 10425),1,-0.36,migration z between -2 and 2; enough cells,0.74,4329,inactive
PRSS3 (GeneID 5646),1,-1.45,migration z between -2 and 2; enough cells,0.51,5832,inactive
IFT43 (GeneID 112752),1,0.71,migration z between -2 and 2; enough cells,1.07,5696,inactive
MRPL19 (GeneID 9801),1,0.17,migration z between -2 and 2; enough cells,0.92,6524,inactive
TTPAL (GeneID 79183),1,-0.86,migration z between -2 and 2; enough cells,0.66,5544,inactive
HBP1 (GeneID 26959),1,-0.82,migration z between -2 and 2; enough cells,0.67,5711,inactive
KRTAP6-2 (GeneID 337967),1,-0.86,migration z between -2 and 2; enough cells,0.66,4603,inactive
FDPS (GeneID 2224),1,0.56,migration z between -2 and 2; enough cells,1.03,7277,inactive
GATD3 (GeneID 8209),1,-2.73,migration z below -2; enough cells,0.18,6178,active
KIAA0319 (GeneID 9856),1,0.67,migration z between -2 and 2; enough cells,1.06,5596,inactive
ALDH1A1 (GeneID 216),1,-0.46,migration z between -2 and 2; enough cells,0.72,6468,inactive
JCHAIN (GeneID 3512),1,-0.04,migration z between -2 and 2; enough cells,0.88,7002,inactive
